Our source for the cell number change and AC50 values is PubChem BioAssay AID2685 (National Center for Advancing Translational Sciences (NCATS), 2010).

This assay in a line: qHTS Assay for Lipid Storage Modulators in Drosophila S3 Cells.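 As to cell number change: cells counted by Cell Tracker Red CMTPX staining in the red channel.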 The following applies: BODIPY lipid droplet fluorescence, 18-24 h; for cell number change: measured here: cell count max response, cells fed with added oleic acid. The gist of the method: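 Drosophila S3 cells got compounds at several concentrations plus oleic acid (400 uM solution). Laser-scanning cytometry with 488 nm excitation read lipid droplets at 500-530 nm and cells at 575-640 nm. Percent activity was relative to 20 uM Triacsin C.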

Setting [1] is: measured here: lipid fluorescence (Fed channel) AC50, cells fed with added oleic acid.
[2] abbreviates: measured here: cell number channel AC50, cells fed with added oleic acid.

Molecules are shown by their SMILES. The list shows a part of the results. Shown are side measurements of this screen, not its main read-out; they come without a call. The list favours compounds with an active or inconclusive main result. Potencies come from curve fits of mixed quality, noted in brackets.

Take `CCOc1cc(C(=O)N/N=C/c2ccsc2)cc(OCC)c1OCC`: the cell number change was -2.1%. In addition, the AC50 under setting [1] was 18.4 µM [falling, single point].
For the compound `Nn1c(SCc2cccc(F)c2)nnc1-c1ccncc1`, the cell number change was 14.3%.
As for `Oc1ccc(NCc2ccccc2OCc2ccccc2)cc1`, the cell number change was -2.51%. Further, under setting [1], the AC50 is 29.1 µM [rising, single point].
Turning to `Cc1nn(-c2ccccc2)c2sc(C(=O)c3c(N)n(C)c(=O)n(C)c3=O)cc12`, the cell number change is -43.7%. For the same compound, the AC50 under setting [2] is 14.6 µM [falling, partial curve]. Besides, the AC50 under setting [1] is 16.4 µM [falling, single point].
Turning to `COc1ccc2c3c(cccc13)C(=O)CC2`, the cell number change is -29.4%. In addition, under setting [1], the AC50 is 16.4 µM [falling, single point].
Regarding `CS(=O)(=O)NCCSCc1c(F)cccc1Cl`, the cell number change is -236%. For the same compound, under setting [2], the AC50 is 29.1 µM [falling, partial curve]. The half-maximal activity concentration (AC50) under setting [1] is 20.6 µM [falling, partial curve].
Turning to `COc1cccc(NC(=O)CN(C)C(=O)C23CC4CC(CC(Cl)(C4)C2)C3)c1`, the cell number change was -19.9%. The AC50 under setting [1] is 20.6 µM [falling, single point].
Turning to `CN1CCN(c2nc(-c3cccs3)cs2)CC1`, the cell number change was 1.68%.
`CC(C)(C)c1cc(Br)c(O)c(N=Nc2ccc(S(=O)(=O)N3CCOCC3)cc2)c1`: the cell number change is -62.9%. The AC50 under setting [2] was 23.1 µM [falling, single point]. For the same compound, under setting [1], the AC50 is 18.4 µM [falling, partial curve].
`COc1ccc(C2OC(=O)CC2C(=O)N2CCN(c3cc(Cl)ccc3C)CC2)cc1OC` (stereo not given): the cell number change was -5.99%. In addition, the AC50 under setting [2] was 0.259 µM [rising, full curve, poor fit].
With `CCN(CC)C(=O)c1nc[nH]c1C(=O)N(CC)CC`, the cell number change was 8.9%. In addition, the AC50 under setting [1] was 0.82 µM [rising, partial curve].
For the compound `CCCCNC(=O)c1nn2c(C(F)(F)F)cc(-c3ccccc3)nc2c1Br`, the cell number change is -11.6%. In addition, the AC50 under setting [1] is 29.1 µM [falling, single point].
In the case of `O=C1CCCc2oc3c(c21)CCCC3`, the cell number change was found to be 35.5%. In addition, the AC50 under setting [2] is 0.651 µM [falling, full curve]. Moreover, the AC50 under setting [1] was 0.517 µM [falling, partial curve].
For the compound `COC(=O)C1=CN(CCCN2CCCC2=O)C=C(C(=O)OC)C1c1cccs1`, the cell number change is 35.3%. Under setting [2], the AC50 is 29.1 µM [rising, single point].
As to `CC(C)(C)C(=O)NC(=S)Nc1ccc(S(=O)(=O)Nc2nccs2)cc1`, the cell number change came out at 18.8%. Besides, the AC50 under setting [1] was 14.6 µM [rising, single point].
In the case of `CC(C)N(C(=O)Cn1c(-c2cccnc2)ccc(C#N)c1=O)C(C)C`, the cell number change worked out at 6.99%. In addition, under setting [1], the AC50 was 18.4 µM [rising, partial curve].
`COc1ccccc1C(=O)NCCC(=O)N(C)Cc1cccs1`: the cell number change was 6.51%.
